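Primary screen of methionyl-tRNA synthetase; the read-out is not stated. Target: Methionyl-tRNA synthetase (putative), Leishmania donovani (UniProt E9BF75). The test concentration is not given. Values are per cent inhibition. About 68,000 compounds were tested under these conditions; 0.035% (about 24) showed 50% or more at least once.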

By UniProt entry, the sequences of proteins in these tests, tags left out.
UniProt E9BF75, entry or part of it: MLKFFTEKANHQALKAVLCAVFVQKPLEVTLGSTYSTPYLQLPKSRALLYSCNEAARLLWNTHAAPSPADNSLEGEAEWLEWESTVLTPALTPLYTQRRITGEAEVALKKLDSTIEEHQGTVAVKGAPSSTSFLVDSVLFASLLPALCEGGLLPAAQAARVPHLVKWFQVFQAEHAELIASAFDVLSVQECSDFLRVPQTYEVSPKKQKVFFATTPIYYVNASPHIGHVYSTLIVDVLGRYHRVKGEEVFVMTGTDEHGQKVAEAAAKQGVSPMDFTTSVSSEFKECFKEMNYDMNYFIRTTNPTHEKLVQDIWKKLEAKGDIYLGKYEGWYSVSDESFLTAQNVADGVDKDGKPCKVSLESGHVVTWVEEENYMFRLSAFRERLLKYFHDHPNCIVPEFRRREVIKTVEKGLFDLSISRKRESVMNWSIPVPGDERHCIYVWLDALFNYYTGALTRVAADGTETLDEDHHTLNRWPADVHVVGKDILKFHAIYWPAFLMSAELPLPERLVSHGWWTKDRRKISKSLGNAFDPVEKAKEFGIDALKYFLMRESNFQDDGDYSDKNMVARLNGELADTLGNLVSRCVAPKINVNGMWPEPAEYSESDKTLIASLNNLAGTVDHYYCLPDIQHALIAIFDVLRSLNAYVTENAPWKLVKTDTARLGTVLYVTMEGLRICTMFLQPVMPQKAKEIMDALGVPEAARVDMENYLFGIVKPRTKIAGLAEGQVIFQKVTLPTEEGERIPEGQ

Results are percentages, as filed. The record does not define 0% and 100%; most values in the screen are far below 50% and negative numbers occur (in some assays of this library far below -100). The compounds are a random part of those screened.

| # | compound | inhibition |
|---|---|---|
| 1 | `CCN1CCN(c2ncc3c(n2)CN(c2cnn(CC)c2)C3=O)CC1` | 1.256 |
| 2 | `CCc1ocnc1C(=O)N1CCN(c2nncc3ccccc23)CC1` | 9.424 |
| 3 | `O=C1Nc2ccccc2CC12CCCN2Cc1ccccn1` (stereo not given) | 0 |
| 4 | `COCC(=O)N1CCC2(C1)c1ccccc1S(=O)(=O)N2CCC(C)C` (stereo not given) | -0.8219 |
| 5 | `O=C(c1ccccn1)N1CCCC(c2cc(C(F)F)n3ncnc3n2)C1` (stereo not given) | 6.771 |
| 6 | `Cc1ccnc(NC(=O)c2[nH]nc(C(C)C)c2Br)c1` | 10.56 |
| 7 | `Cc1nc(CN2CCC3(C2)CN(Cc2ccco2)C3)cs1` | 18.7 |
| 8 | `CC(C)c1ccc(OCCC(=O)N(C)CC(N)=O)cc1` | 16.94 |
| 9 | `N#Cc1cccc(S(=O)(=O)NC2CCN(CC(F)(F)F)C2)c1` (stereo not given) | 16.72 |
| 10 | `c1cn(-c2ccc(CN3CCCC3)cc2)c(-c2cc3n(n2)CCNC3)n1` | 22.45 |
| 11 | `COCCCC1(CO)CCCN(CCc2ccccc2)C1` (stereo not given) | 9.36 |
| 12 | `COc1ccccc1OCC(=O)NCC(C)(O)C1CC1` (stereo not given) | 16.95 |
| 13 | `Cc1ccccc1C1(CNC(=O)c2ccc(S(C)(=O)=O)cc2)CC1` | 5.249 |
| 14 | `Cc1nnsc1CN(C)C(=O)CN1CC2(CCNCC2)OC1=O` | 10.99 |
| 15 | `COc1cccc(CN2CCCCCC2c2cccs2)c1O` (stereo not given) | 17.65 |
| 16 | `CC(=O)c1ccc(S(=O)(=O)N2CCOC(Cn3ccnc3)C2)cc1` (stereo not given) | 13.65 |
| 17 | `O=C(C1CCCC1)N1C[C@@H]2CCNC[C@@H]21` | 7.222 |
| 18 | `CN1CCC(N(C)C[C@H]2CC[C@@H](Cc3ccc4c(cnn4C)c3)O2)CC1` | 8.635 |
| 19 | `O=C(c1ccncc1)N1C[C@@H](OCc2cccnc2)[C@H]2OCCC[C@H]21` | 7.843 |
| 20 | `O=C(NCCc1cccs1)N1CCCC1CCCO` (stereo not given) | 8.099 |
| 21 | `O=C(CCc1cccs1)N1CCC(Nc2cccnn2)CC1` | 11.81 |
| 22 | `Cc1cc(-c2cnc(NC3CCCCC3)nc2-c2ccco2)on1` | 19.27 |
| 23 | `CCC(CO)N(Cc1ccccn1)C(=O)c1ccc(CSC)o1` (stereo not given) | 10.06 |
| 24 | `CC(NCc1ccc(C(N)=O)cc1)c1ccc(Cl)c(Cl)c1` (stereo not given) | 7.343 |
| 25 | `Cc1cnn(CCNCC(=O)N2CCN(c3ncccn3)CC2)c1` | 9.322 |
| 26 | `CCc1nc2n(n1)CC(NCc1nc(C)ccc1O)CC2` (stereo not given) | 18.31 |
| 27 | `CCC(Nc1nc(C(C)C)nc2c1cnn2C)c1ccc(O)cc1` (stereo not given) | 3.333 |
| 28 | `COCc1cnc2n1CCN(C(=O)C1=CCCC1)C2C` (stereo not given) | 10.09 |
| 29 | `CCc1nnc(CSc2ccccn2)o1` | 6.534 |
| 30 | `Cc1nn(C)c2nc(N(Cc3cnn(C)c3)C3CCCCC3)sc12` | -23.06 |
| 31 | `Cc1nc(-c2ccc(Cl)s2)sc1C(=O)N(C)CC(N)=O` | 18.21 |
| 32 | `Cc1cc(CN(C)C(=O)C(c2cccnc2)N2CCOCC2)n[nH]1` (stereo not given) | 5.177 |
| 33 | `CCCC(NC(=O)c1cc(C)ccc1C)c1nnn[nH]1` (stereo not given) | 6.829 |
| 34 | `Cc1cccc2cc(CN3CCC(O)(CN4CCCC4)CC3)c(=O)[nH]c12` | 13.07 |
| 35 | `Cc1ncsc1C(=O)NCc1ccc(-c2n[nH]cc2C(=O)N(C)C)cc1` | 10.59 |
| 36 | `CCN1CCN(C(=O)C(C)n2cc(Br)cn2)CC1` (stereo not given) | -42.46 |
| 37 | `Cc1ccc(-n2nc3n(c2=O)CCN(C(=O)c2ccc(Cl)cc2)C3)cc1` | 16 |
| 38 | `Nc1ccc(C(=O)N2C[C@@H]3CC[C@H](C2)N(Cc2ccccc2)C3)cn1` | 18.4 |
| 39 | `c1cc2c(cc1-c1noc3c1CN(C1CCSC1)CC3)OCO2` (stereo not given) | 25.69 |
| 40 | `O=C1OCCN1c1cccc(CNS(=O)(=O)Cc2ccc(F)cc2)c1` | 16.43 |
| 41 | `c1cnc(N2CCCC(c3cncc(-n4ccnc4)n3)C2)nc1` (stereo not given) | 7.294 |
| 42 | `CC[C@H]1N(C)CCC[C@]12CCC(=O)N2Cc1ccncc1` | 6.397 |
| 43 | `CNC(=O)Cc1noc(-c2cc3c(s2)CCCC3)n1` | 12.63 |
| 44 | `CN(C)CCCN(C)C1CCN(c2cccc(-c3cscn3)c2)CC1` | 18.67 |
| 45 | `CCC1(CNCc2ncc[nH]2)CCCC1` | 10.22 |
| 46 | `CC1c2cccn2CCN1C(=O)CCc1nc(-c2ccccc2)no1` (stereo not given) | 8.393 |
| 47 | `O=C(CCCc1ccccn1)Nc1cccc(N2CCCNC2=O)c1` | 19.41 |
| 48 | `Cc1cnn(CC2CCCCN2Cc2nnsc2Cl)c1` (stereo not given) | 21.69 |
| 49 | `OC(CN(Cc1ccccc1)Cc1cccnc1)c1ccco1` (stereo not given) | 17.4 |
| 50 | `COCCNC(=O)[C@H]1CN(Cc2nccs2)C[C@H]2OCC[C@@H]12` | 20.5 |
| 51 | `COc1cccc2c1OCC(C(=O)N1CCSCC1)C2` (stereo not given) | 11.37 |
| 52 | `Cn1cnc2c1C(COCC1CCOCC1)CN(C(=O)c1ccoc1)C2` (stereo not given) | 5.226 |
| 53 | `Cc1cc(=O)n(C)cc1NC(=O)Cc1ccc(C(F)(F)F)cc1` | 18.01 |
| 54 | `FC(F)CN1CCC(NCc2ccc(-n3cccn3)nc2)CC1` | 10.76 |
| 55 | `Cc1ccc(C(=O)N2C[C@@H]3CN(S(C)(=O)=O)CCO[C@@H]3C2)o1` | 4.498 |
| 56 | `CCCS(=O)(=O)N1Cc2nccn2CC(CN(C)C)C1` (stereo not given) | 4.467 |
| 57 | `CC(C)(C)c1cn(C2CCN(C(=O)c3cnccn3)CC2)nn1` | 12.81 |
| 58 | `OCCN1CCCC(c2nccnc2Oc2ccccc2)C1` (stereo not given) | 7.767 |
| 59 | `CCn1cc(CN2CCC(CCC(=O)Nc3ccccc3Cl)CC2)cn1` | -0.5376 |
| 60 | `c1cc(CN2CCc3ncnc(C4CCOC4)c3CC2)ccn1` (stereo not given) | 8.143 |
| 61 | `[O-][S+](Cc1c(F)cccc1Cl)Cc1nnnn1C1CC1` (stereo not given) | 17.62 |
| 62 | `CC(NC(=O)N(C)Cc1cccc(OC(F)F)c1)c1nncn1C` (stereo not given) | 7.865 |
| 63 | `COc1cc(N2C[C@@H]3COC[C@]3(COc3ccc(C#N)cn3)C2)ncn1` | 17.17 |
| 64 | `CC(=O)N1CCCN(C(=O)CCc2c(C)nc3ccnn3c2C)CC1` | 13.14 |
| 65 | `CC(C)C(=O)N1CCC2(CC1)NC(=O)c1ccccc12` | 19.2 |
| 66 | `CN1CCCC(CCC(=O)N2CCc3c(nc(CC4CC4)[nH]c3=O)C2)C1` (stereo not given) | 12.61 |
| 67 | `CC(NC(=O)N(C)CCCOc1ccc(F)cc1)c1nncn1C` (stereo not given) | 11.89 |
| 68 | `CCN(CC)C(CNCc1ccc(C)o1)c1ccco1` (stereo not given) | 11.46 |
| 69 | `O=C(O)[C@@H]1CCCN1c1nccc(Nc2ccccc2)n1` | -0.2778 |
| 70 | `O=C(NCCN1CCCCC1)c1nc2ccccc2c(=O)[nH]1` | 6.224 |
| 71 | `COc1cccc(OCC2CCCN(c3cc(C(N)=O)ccn3)C2)c1` (stereo not given) | 11.85 |
| 72 | `CC1=Nc2c(c(=O)[nH]n2C2CCCC2)C(c2ccc(O)cc2)S1` (stereo not given) | 12.66 |
| 73 | `CCOc1ccnc(N2CCN(C(=O)c3ccn(C)c(=O)c3)CC2)n1` | 25.56 |
| 74 | `CC(=O)N(Cc1noc(C)n1)C1CCN(CC2(O)CCCCC2)C1` (stereo not given) | 13.31 |
| 75 | `CCc1cnc(N2CCC3(CC2)CN(c2cccnc2)C(=O)CO3)nc1` | -1.01 |
| 76 | `CCCN(CCC)C(=O)CN(C)C1CCc2ccccc21` (stereo not given) | 17.49 |
| 77 | `CC(=O)c1cnc(NCCN2CCCC2)nc1C` | 10.79 |
| 78 | `O=C(NCCc1c[nH]cn1)c1ccc2c(c1)C(=O)N(C1CCCC1)C2=O` | 3.736 |
| 79 | `Cc1c(C(=O)NCCC(C)C)nnn1-c1cccc2c1CCN(C)C2` | 25.99 |
| 80 | `CC(=O)N1CCN(C(=O)c2ccc3ccn(C)c3c2)CC1` | 10.61 |
| 81 | `COCC1CN(C(=O)c2cccn2C)Cc2ncnn2C1` (stereo not given) | 7.087 |
| 82 | `O=C(Cn1cc(-c2ccccc2)ncc1=O)Nc1nnc[nH]1` | 13.33 |
| 83 | `Cn1c(NC(=O)CNC(=O)C2CC2)nc2cc(Cl)ccc21` | 0.2597 |
| 84 | `CN(C)C(=O)c1noc2c1CN(C(=O)CCCN1CCCCC1)CC2` | 2.235 |
| 85 | `Cc1cc(N2CCCN(c3nc(C)nc(C)c3C)CC2)ccn1` | 11.02 |

Source: ChEMBL document CHEMBL3988442, “University of Dundee, Small-Polar-MMV Screening Library” (2021).